At least one compound was matched to its structure with a doubt left.
Key:
[1] = system: pro-inflammatory cytokine response induced by transfusion of older stored RBCs; assay: Iron chelator pretreatment before transfusion of 2-week stored RBCs, plasma cytokines 2 hours post-transfusion (FIG. 9); type: in vivo, mice; conditions: 120 mg/kg deferoxamine i.v. or 30 mg/kg deferasirox oral, 400 μL 2-week stored RBCs
[2] = system: pro-inflammatory response induced by stored RBC transfusions; assay: DFO or FO infusion immediately before stored RBC transfusion, plasma cytokine/chemokine levels (FIG. 16A, 19); type: in vivo, mice; conditions: 2 hours
Protocol: To obtain the results shown in FIG. 16A, mice were pretreated with a PBS vehicle control (n=28) or with 3 mg of DFO, with (n=15) or without (n=31) the addition of equimolar ferric citrate, immediately before transfusion with stored RBCs (400 μL). Mice were sacrificed 2 hours after transfusion, and plasma cytokine levels were measured; *P<0.05; **P<0.01; ***P<0.001 compared with mice infused with PBS vehicle and transfused stored RBCs. To obtain the results shown in FIG. 16B, bioluminescence was quantified for 24 hours after transfusion over the hepatosplenic region of SAA1-luciferase reporter mice transfused with 200 μL of fresh RBCs (n=3; •), the PBS vehicle control and stored RBCs (n=3; ▪), or 3 mg of DFO and stored RBCs (n=6; ▴); P=0.095 at 4 and 6 hours after transfusion comparing vehicle-treated and DFO-treated mice. […] Transfusion of stored, but not fresh, RBCs delivers an acute bolus of RBCs and RBC-derived iron to the monocyte/macrophage system resulting in oxidative stress and inflammatory cytokine secretion. Some of the macrophage-ingested iron is also released back into the circulation (i.e., NTBI) where it can also cause oxidative damage and enhance bacterial proliferation. SIRS indicates systemic inflammatory response syndrome.
Mice were untreated or pretreated with 3 mg of DFO immediately before stored RBC transfusion (400 μL; n=14 per group). Mice were sacrificed 2-hours post-transfusion and plasma cytokine/chemokine levels measured. Boxes represent 25th to 75th percentile with median line. Whiskers represent range. KC: P=0.07; MIP-1β: P=0.18; TNF-α: P=0.097.
RBCs (200 or 400 μL at 17.0-17.5 g/dL of hemoglobin; 1 or 2 equivalent human units, respectively) were transfused through the retro-orbital plexus of isoflurane-anesthetized mice. The proportion of transfused RBCs circulating at 2 and 24 hours posttransfusion (i.e., the 2- and 24-hour posttransfusion survival) was measured by either a dual- or a single-labeling method (preliminary studies confirmed that there is no significant difference in these methods for the conditions of this study (not shown)). For dual labeling, an aliquot of fresh, syngeneic C57BL/6 RBCs was labeled with chloromethylbenzamido 1,1′-dioctadecyl-3,3,3′,3′-tetramethylindocarbo-cyanine perchlorate (Dil; Invitrogen, Carlsbad, Calif.) and an aliquot of allogeneic, FVB/NJ fresh RBCs or stored RBCs was labeled with 3,3′-dihexadecyloxacarbocyanine perchlorate (DiO; Invitrogen), as described previously. At defined time points post-transfusion, 1-2 μL of blood was obtained from the tail vein and transferred to 500 μL of PBS for flow cytometric detection of fluorescently-labeled RBCs. Survival was calculated by comparing the ratio of Dil- to DiO-labeled RBCs in the sample to the ratio in the transfuse itself. […]

SAA1-luciferase reporter = assay: In vivo imaging of luciferase activity in SAA1-luciferase reporter mice; conditions: 3 mg DFO and 200 μL stored RBCs vs PBS vehicle; hepatosplenic region; up to 24 hours
SAA protein = assay: Plasma serum amyloid A (SAA) ELISA; type: in vivo, mice; conditions: DFO-treated vs vehicle; 24 hours after transfusion
TNF-α = conditions: LPS-challenged mice; reference [119]; cited from earlier work
[3] = 3 mg DFO i.v. immediately before stored RBC transfusion

CC(=O)N(O)CCCCCNC(=O)CCC(=O)N(O)CCCCCNC(=O)CCC(=O)N(O)CCCCCN [DFO, deferoxamine]
plasma IL-6 levels [1]: statistically significantly blocked increases
plasma KC levels [1]: statistically significantly blocked increases
plasma MCP-1 levels [1]: trend towards reducing
KC levels [2, 3]: trend towards reducing
MCP-1 levels [2, 3]: trend towards reducing
TNF-α levels [2, 3]: trend towards reducing
proinflammatory cytokine response ([2]; 3 mg DFO, or FO (equimolar DFO and ferric citrate), before stored RBCs (400 μL)): significantly inhibited increases
luciferase signal in SAA1-luciferase reporter mice (SAA1-luciferase reporter): trend toward reducing
SAA protein levels (SAA protein): not significantly different
TNF-α levels (TNF-α): reduced TNF-α levels to a similar extent

O=C(O)c1ccc(-n2nc(-c3ccccc3O)nc2-c2ccccc2O)cc1 [deferasirox]
plasma IL-6 levels [1]: statistically significantly blocked increases
plasma KC levels [1]: statistically significantly blocked increases
plasma MCP-1 levels [1]: trend towards reducing

Reference: patent publication US20120294826A1, “METHODS, KITS AND COMPOSITIONS FOR AMELIORATING ADVERSE EFFECTS ASSOCIATED WITH TRANSFUSION OF AGED RED BLOOD CELLS” (priority 2009, published 2012)
